The list shows a part of the results, in another mix than the full data. The source made the active and inactive calls.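 The calls were made as follows: active = CYP2C19 inhibition above a set limit at 5 µM in the primary screen (cut at about 50% in these data); inactive = the rest.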

Amino acid sequences for entries named in this document (tags omitted).
UniProt P33261, whole entry, looked up: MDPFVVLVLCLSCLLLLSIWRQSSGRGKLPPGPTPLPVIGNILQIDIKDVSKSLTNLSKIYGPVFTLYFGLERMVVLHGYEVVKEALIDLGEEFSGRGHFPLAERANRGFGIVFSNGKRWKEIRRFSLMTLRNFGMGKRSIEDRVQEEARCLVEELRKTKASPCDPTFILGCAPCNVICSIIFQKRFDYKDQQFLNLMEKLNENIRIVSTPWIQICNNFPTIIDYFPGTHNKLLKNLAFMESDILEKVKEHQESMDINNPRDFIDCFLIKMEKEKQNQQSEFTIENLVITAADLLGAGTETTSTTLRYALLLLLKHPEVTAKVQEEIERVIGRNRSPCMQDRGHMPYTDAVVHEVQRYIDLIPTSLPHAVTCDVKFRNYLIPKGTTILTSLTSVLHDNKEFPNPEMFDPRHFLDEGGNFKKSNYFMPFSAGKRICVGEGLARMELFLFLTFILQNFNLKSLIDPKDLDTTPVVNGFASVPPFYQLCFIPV

Our source for the inhibition values is PubChem BioAssay AID778 (Sanford-Burnham Center for Chemical Genomics, 2007).

This assay deals with Cytochrome P450 2C19 (Homo sapiens) (UniProt P33261). Nature of the assay: blockers of cytochrome P450 2C19 activity – biochemical, luminescence, ADME assay, primary screen (AID 778).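 Also: plate controls were negative control wells for no effect and 2.5 mM tranylcypromine positive control for full effect.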 The settings on record: CYP2C19 Supersomes, luciferin-H EGE luminescence, 30 min; at 5 µM; stronger effect = higher value.
With `Nc1ccc(Sc2ccccc2CC(=O)O)cc1`, the inhibition (in general, the change of the read-out against control, counted positive when it falls) is active: 54.5%.
